The nature of this assay: qHTS Assay for Lipid Storage Modulators in Drosophila S3 Cells.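 On cell number change: cells counted by Cell Tracker Red CMTPX staining in the red channel.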 The following applies: BODIPY lipid droplet fluorescence, 18-24 h; for cell number change: measured here: cell count max response, cells fed with added oleic acid. The method in brief:
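Laser-scanning cytometry quantifies lipid droplet accumulation (500–530 nm total intensity; droplet/cell object ratio) in oleic acid-fed (400 uM added) Drosophila S3 cells treated with a concentration series. 20 uM Triacsin C defined 100% inhibition.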
On the technique in general: Quantitative high-throughput screening tests each substance at several concentrations.

The mark [1] stands for this setting: measured here: cell number channel AC50, cells fed with added oleic acid.
Setting [2] is: measured here: lipid fluorescence (Fed channel) AC50, cells fed with added oleic acid.

This is one part of the list. Shown are side measurements of this screen, not its main read-out; they come without a call. Most of these compounds were active or inconclusive in the main read-out, so they are no random draw. Potencies come from curve fits of mixed quality, noted in brackets.

By AC50 is commonly meant the concentration giving half of the maximal activity seen. In the case of `Cc1cccc(C(=O)NC2CCN(C(=O)N3CCOCC3)CC2)c1`, the cell number change was -56%. For the same compound, the half-maximal activity concentration (AC50) under setting [1] was 13 µM [falling, partial curve]. The concentration at half-maximal activity (AC50) under setting [2] is 3.66 µM [falling, full curve, poor fit].
Turning to `Cc1ccc(C)c(S(=O)(=O)NCc2ccc(C(=O)N3CCC(Cc4ccccc4)CC3)cc2)c1`, the cell number change is -4.32%. For the same compound, the concentration at half-maximal activity (AC50) under setting [1] is 0.0206 µM [falling, partial curve, poor fit].
Take `Cc1cc(NC(=O)CN(C)C)c([N+](=O)[O-])cc1C`: the cell number change was 17.1%.
With `C#CC1(NC(=O)NC(C)C)CCCCC1`, the cell number change stood at 38.4%. Further, the AC50 under setting [1] is 6.51 µM [falling, single point]. Under setting [2], the half-maximal activity concentration (AC50) was 4.61 µM [falling, single point].
`Cc1nc2ccc(NC(=S)NCCCO)cc2nc1C`: the cell number change amounted to 22.4%. Also, under setting [2], the AC50 was 16.4 µM [rising, partial curve, poor fit].
In the case of `CC(=O)NNc1nc2ccccc2s1`, the cell number change was 30.2%. Moreover, the AC50 under setting [1] is 0.731 µM [rising, full curve, poor fit].
On to `COc1ccc(S(N)(=O)=O)cc1C(=O)OCCCOC(=O)c1cc(S(N)(=O)=O)ccc1OC`, for which the cell number change worked out at 13%. The AC50 under setting [1] was 0.164 µM [rising, full curve, poor fit].
With `Nc1nc(SCC(=O)Nc2ccc(C(F)(F)F)cc2)[nH]c(=O)c1NC(=O)c1ccc(F)c(F)c1`, the cell number change came out at 62.9%. Also, the AC50 under setting [1] is 25.9 µM [rising, single point].
In the case of `COc1cc(C2c3cc4c(cc3C(OC3OC5COC(c6cccs6)OC5C(O)C3O)C3COC(=O)C23)OCO4)cc(OC)c1O` (configuration not stated), the cell number change is -50.1%. Besides, the concentration at half-maximal activity (AC50) under setting [1] was 0.291 µM [falling, full curve]. Besides, the half-maximal activity concentration (AC50) under setting [2] is 23.1 µM [falling, partial curve].
For `O=C(CSc1ccc2ccccc2c1)Nn1cnnc1`, the cell number change was -16.2%. The concentration at half-maximal activity (AC50) under setting [2] was 6.51 µM [falling, partial curve].
Regarding `Cc1ccc(CN2CC(C(=O)N(Cc3nnc(-c4ccccc4Cl)o3)C3CC3)CC2=O)cc1` (configuration not stated), the cell number change is -50%. Further, under setting [1], the half-maximal activity concentration (AC50) was 16.4 µM [falling, single point].
Regarding `Cc1ccc(-c2nc3ccccc3o2)cc1NC(=S)NC(=O)c1cc2ccccc2o1`, the cell number change was 1.26%. For the same compound, the half-maximal activity concentration (AC50) under setting [1] is 6.51 µM [falling, single point].
Turning to `COc1cccc(NC(=O)CSc2nnc(CNC(=O)c3ccccc3F)o2)c1`, the cell number change was -15.6%.
Consider `CC(C)NC(=O)C(=O)NCc1ccccn1`, for which the cell number change was -23.9%. Under setting [1], the AC50 is 0.13 µM [falling, full curve, poor fit]. In addition, the AC50 under setting [2] was 0.82 µM [falling, full curve].
Regarding `O=C(CSc1ccc(-c2ccc(F)cc2)nn1)N1CCOCC1`, the cell number change worked out at 30.6%. In addition, the AC50 under setting [1] was 29.1 µM [rising, single point].
For the compound `Nc1ccccc1C(=O)Nc1cccc2ccccc12`, the cell number change is -13.7%.
On to `CCC(NC(=S)NCc1ccc(F)cc1)c1ccccc1` (configuration not stated), for which the AC50 under setting [2] was 2.06 µM [rising, partial curve].
With `COC(=O)c1cccc(NC(=O)c2cc(OC)c(OC)c(OC)c2Br)c1`, the AC50 is, setting by setting: under setting [1], 6.51 µM [falling, single point]; under setting [2], 3.26 µM [rising, single point].
For the compound `NS(=O)(=O)c1ccc(NC(=O)c2ccc3c(c2)CCN3S(=O)(=O)c2ccccc2)cc1`, the cell number change was -19.9%. Further, the concentration at half-maximal activity (AC50) under setting [2] is 4.61 µM [falling, partial curve].
With `O=C(CCn1nc(-c2ccc(Cl)cc2)c2ccccc2c1=O)NCC1CCCO1` (configuration not stated), the cell number change worked out at 58.6%. Further, the AC50 under setting [1] is 29.1 µM [rising, single point].
Turning to `COc1ccc(C(=O)N2CCC(C(=O)NC3CC3)CC2)cc1`, the cell number change was 1.71%. The half-maximal activity concentration (AC50) under setting [2] is 29.1 µM [rising, single point].
On to `CC(C)C(=O)N1CCN(S(=O)(=O)c2ccc3ccccc3c2)CC1`, for which, under setting [2], the AC50 is 3.26 µM [falling, full curve].
On to `O=C1CSC(c2ccco2)N1` (configuration not stated), for which the cell number change is -1.35%. Further, the concentration at half-maximal activity (AC50) under setting [2] was 16.4 µM [falling, single point].
As to `N#Cc1ccc(C23CC4(C2)[C@H](CN(Cc2ccc(-c5ccccc5)cc2)[C@@H]4c2ccccc2)C3c2ccc(C(F)(F)F)cc2)cc1` (some centres not stated), the cell number change is 37%. Under setting [1], the AC50 is 2.59 µM [rising, full curve]. Besides, the concentration at half-maximal activity (AC50) under setting [2] is 2.59 µM [rising, full curve].
As to `CCOC(=O)CNS(=O)(=O)CCN1C(=O)c2ccccc2C1=O`, the cell number change is 4.94%.
As for `Cc1ccc2[nH]c(=O)c(CNC(C)(C)C)cc2c1`, the cell number change was -35.8%. Under setting [1], the AC50 is 32.6 µM [falling, single point]. For the same compound, under setting [2], the AC50 was 18.4 µM [falling, partial curve].
Take `Cc1ccc2oc(C(=O)N3CCN(CCO)CC3)c(C)c2c1`: the cell number change was -25.2%. The AC50 under setting [2] was 29.1 µM [rising, single point].
For the compound `CSc1nnc(NC(=O)c2nc(S(=O)(=O)Cc3ccccc3)ncc2Cl)s1`, the cell number change was -20.8%. Besides, the concentration at half-maximal activity (AC50) under setting [1] was 2.31 µM [falling, partial curve]. The AC50 under setting [2] is 2.31 µM [falling, full curve].
Consider `COc1cc(C(=O)NCCNC(=O)c2cc(OC)c(C)c(OC)c2)cc(OC)c1C`, for which the cell number change is 25.8%. For the same compound, the concentration at half-maximal activity (AC50) under setting [2] was 25.9 µM [falling, single point].
Regarding `COP(=O)(OC)C(Nc1ccc([N+](=O)[O-])cc1)c1ccccc1` (configuration not stated), the cell number change was -0.747%. Also, the AC50 under setting [1] was 0.731 µM [falling, full curve].
As to `N#C/C(=C\c1cn(-c2ccccc2)nc1-c1cccnc1)c1nnc2n1CCCCC2`, the cell number change worked out at 99%. Also, the AC50 under setting [1] is 0.731 µM [rising, full curve]. The half-maximal activity concentration (AC50) under setting [2] is 0.92 µM [rising, partial curve].
As to `Cc1ccccc1COC(=O)CCCC1=NS(=O)(=O)c2ccccc2N1`, the cell number change is 1.32%.
With `COC(=O)[C@H](CCSC)NC(=O)Nc1ccc(OC)c(Cl)c1`, the AC50 runs as follows: under setting [1], 0.461 µM [falling, partial curve, poor fit]; under setting [2], 0.0164 µM [rising, partial curve].
`O=C(c1cc2ccccc2o1)N1CCN(Cc2ccc3c(c2)OCO3)CC1`: the cell number change is -9.54%.
Turning to `Cc1ccc2nc(-c3cccc(S(=O)(=O)N4CCCC4)c3)cn2c1`, the cell number change was determined as 12.8%.
For the compound `O=C(NCc1cccnc1)c1ccc(-c2cc(Cl)ccc2Cl)o1`, the cell number change was -2.53%. The half-maximal activity concentration (AC50) under setting [2] was 32.6 µM [falling, single point].
With `CC(OC(=O)CNC(=O)c1ccccc1)C(=O)Nc1ccc(S(=O)(=O)N2CCOCC2)cc1` (configuration not stated), the cell number change stood at 36%. Under setting [1], the half-maximal activity concentration (AC50) is 29.1 µM [rising, single point].
`O=S(=O)(Cc1ccc(Cl)cc1)N1CCN(Cc2ccccc2)CC1`: the cell number change is -103%. The half-maximal activity concentration (AC50) under setting [2] is 29.1 µM [falling, partial curve].
As for `COc1cccc(NC(=O)CN(C)C(=O)CCC(=O)c2cc(C)sc2C)c1`, the cell number change worked out at 54%. Also, the concentration at half-maximal activity (AC50) under setting [1] was 20.6 µM [rising, single point].
Regarding `CN1CCN(C(CC(=O)Nc2cccc(O)c2)C(=O)O)CC1` (configuration not stated), the cell number change worked out at 13.3%. The half-maximal activity concentration (AC50) under setting [1] was 1.03 µM [falling, full curve]. Further, under setting [2], the AC50 is 1.16 µM [falling, full curve].
Consider `Nc1[nH]ncc1S(=O)(=O)c1ccccc1`, for which the cell number change is 25.9%.
Regarding `c1ccc(Cn2c(NCc3ccco3)nc3ccccc32)cc1`, the concentration at half-maximal activity (AC50) under setting [2] is 0.651 µM [falling, full curve].
The same measure, in the same setting: then `O=C(O)COc1ccccc1/C=N/NC(=O)CSc1nnc(SCc2ccc(Cl)cc2)s1`, with 0.517 µM [rising, full curve].
In the case of `COc1ccc(/C=C2\CCCC3C2=NN(C(=O)c2ccco2)C3c2ccc(OC)c(OC)c2)cc1OC` (configuration not stated), the cell number change was -26.4%. Besides, under setting [2], the concentration at half-maximal activity (AC50) is 29.1 µM [falling, single point].
Take `COCCn1c(SCC(=O)NC2CCCC2)nc2ccccc2c1=O`: the cell number change was 0.747%. Moreover, the AC50 under setting [2] is 1.64 µM [rising, partial curve].
On to `CCOc1ccc(NC(=O)CN(C)C(=O)CSC(C)C(=O)Nc2cc(C)on2)cc1OCC` (configuration not stated), for which the half-maximal activity concentration (AC50) under setting [2] is 16.4 µM [rising, partial curve].
As for `COc1ccc(/C=C2/SC(=S)N(c3ccc(S(=O)(=O)Nc4nccs4)cc3)C2=O)cc1`, the cell number change was -8.71%. Under setting [1], the AC50 is 0.731 µM [falling, single point].
Consider `Cc1ccc(C)n1-c1nnc(N2CCC(C(=O)N3CCN(C)CC3)CC2)s1`, for which the cell number change is -4.03%.
In the case of `O=C(CN1C(=O)COc2ccccc21)NCCCN1CCN(c2ccccc2F)CC1`, the AC50 under setting [1] is 6.51 µM [rising, single point].
Turning to `Brc1ccccc1/C=N/N1CCCCC1`, the cell number change was -32.2%. In addition, the AC50 under setting [1] is 20.6 µM [falling, partial curve].
`CS(=O)(=O)n1nc(OC(=O)c2cccc3ccccc23)cc1N`: the cell number change worked out at 5.17%. The concentration at half-maximal activity (AC50) under setting [2] is 4.11 µM [rising, single point].
On to `CCCc1cn(S(=O)(=O)c2ccc(OC)cc2OC)nc1N`, for which the cell number change is 65.1%. The AC50 under setting [1] is 0.731 µM [rising, partial curve]. In addition, under setting [2], the AC50 was 2.06 µM [rising, full curve].
For the compound `O=c1[nH][nH]cc1C=Nc1ccccc1O`, the cell number change was found to be 103%. In addition, the AC50 under setting [1] is 0.00461 µM [rising, full curve, poor fit].
In the case of `CCOC(=O)Nc1ccc2c(COC(=O)CNS(=O)(=O)c3cccc(Br)c3)cc(=O)oc2c1`, the cell number change is 5.3%.
As to `O=C(Nc1cc(Cl)ccc1O)C1CC(c2ccccc2Cl)=NO1` (configuration not stated), the cell number change was -25.3%. The half-maximal activity concentration (AC50) under setting [2] was 6.51 µM [rising, partial curve].
Consider `CCC1(c2ccccc2)NC(=O)N(CC(=O)Nc2ccc(Cl)c(S(=O)(=O)N3CCCCC3)c2)C1=O` (configuration not stated), for which the cell number change was 23.7%.
For the compound `CCOc1cc(NS(C)(=O)=O)c(OCC)cc1NC(=O)c1cccs1`, the cell number change was -12.4%. Also, under setting [2], the AC50 is 2.06 µM [rising, partial curve].
Turning to `Cc1nn(-c2ccccc2)c2[nH]c(=O)c(CNCc3ccc4c(c3)OCO4)cc12`, the cell number change was -1.69%. Under setting [1], the AC50 was 0.58 µM [rising, partial curve].
As to `CCOC(=O)C(C)S(=O)(=O)c1ccc(C(F)(F)F)cn1` (configuration not stated), the cell number change is -98.2%. Moreover, under setting [1], the concentration at half-maximal activity (AC50) is 25.9 µM [falling, partial curve]. For the same compound, the half-maximal activity concentration (AC50) under setting [2] was 23.1 µM [falling, partial curve].
Turning to `Cc1ccc2nc(NC(=O)CSCC(=O)OCC(=O)c3ccccc3)sc2c1`, the cell number change came to 7.51%. For the same compound, the concentration at half-maximal activity (AC50) under setting [2] is 0.731 µM [rising, single point].
Consider `NC(=O)c1ccccc1N=Cc1ccc2ccccc2c1`, for which the cell number change was -58.3%. Further, the AC50 under setting [1] was 18.4 µM [falling, partial curve]. Besides, the AC50 under setting [2] is 6.51 µM [falling, partial curve, poor fit].

For the origin of these results see PubChem BioAssay AID2685 (National Center for Advancing Translational Sciences (NCATS), 2010).
